Results are given in words; binding and its absence hold for the method and conditions named. Binding seen in cells or lysates may run through a third protein. A result given as binding can be weak or reduced; the word gives no strength. Tags and fused reporters may be left off the sequences shown.

The experiment has as its target T1, ASB10-FLAG (human), full length (human) (UniProt Q8WXI3).
T1 sequence: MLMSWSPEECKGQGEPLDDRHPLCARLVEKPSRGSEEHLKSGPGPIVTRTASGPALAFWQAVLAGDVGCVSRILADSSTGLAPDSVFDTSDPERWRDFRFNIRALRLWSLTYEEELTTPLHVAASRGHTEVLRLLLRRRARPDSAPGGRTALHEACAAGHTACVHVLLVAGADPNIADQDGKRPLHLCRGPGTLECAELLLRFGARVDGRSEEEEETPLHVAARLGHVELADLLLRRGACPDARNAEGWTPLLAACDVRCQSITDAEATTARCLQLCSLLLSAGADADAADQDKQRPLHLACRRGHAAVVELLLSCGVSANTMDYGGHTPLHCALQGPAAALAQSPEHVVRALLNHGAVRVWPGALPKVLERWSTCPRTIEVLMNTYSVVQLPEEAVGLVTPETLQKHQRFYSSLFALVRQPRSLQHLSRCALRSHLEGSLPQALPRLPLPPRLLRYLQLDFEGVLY
The experiment in a line: co-IP; HEK293T cells transfected with tagged plasmids (ASB10-FLAG, HSPA1-Myc, their truncations, STUB1-EGFP, Ub-HA); lysates incubated with antibody (FLAG, Myc or HSP70) and Protein A&G magnet beads overnight at 4 °C, washed 5 times with 0.5% PBST; western blot.

Take HSPA1-Myc, full length (human): the binding result was “binds”. For “substrate binding domain (containing C terminal) of HSP70 (HSPA1-SBD + C) (human) (domain or fragment)”, the binding result was “binds”.

The values above are taken from PMC12095639.
